Data source: PubChem BioAssay AID1671195 (Yale University, 2021)
Screen: 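Genes whose knockdown alters LDL uptake in liver cancer cells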 (primary screen). Cells: human Huh7 hepatoma cells. Reagent: siRNA pool against human genes, 18 nM. Time to read-out: about 2 to 2.5 days of knockdown, then 8 h LDL uptake. Conditions: DiI-labelled LDL at 30 µg/ml for 8 h, in lipoprotein-deficient serum medium. Measurement: 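Fluorescent LDL signal imaged in cells, scaled to the plate median, robust z-score for each replicate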. Scale: robust z-score: higher = more LDL uptake after knockdown. Active means: 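Active when two or more replicates show a robust z-score above 2 or below -2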.
In all, the deposit lists about 22,000 reagents; this is a part drawn at random. About 1,510 of them (6.9%) count as active. 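Active includes knockdowns raising or lowering LDL uptake; positive z-scores mean more uptake, negative mean less.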

The first 7 entries as a preview:
gene	robust z-score, replicate 1	robust z-score, replicate 2	robust z-score, replicate 3	outcome
LOC400097 (retired record)	0.299	-0.446	-0.433	inactive
CTR9 (CTR9 component of Paf1/RNA polymerase II complex)	-0.592	-0.916	1.07	inactive
GUSBP8 (GUSB pseudogene 8)	-0.217	-0.00411	-0.308	inactive
RPP30 (ribonuclease P/MRP subunit p30)	-1.03	-0.514	-0.835	inactive
DIRAS2 (DIRAS family GTPase 2)	1.57	1.83	1.67	inactive
TBC1D3P5 (TBC1 domain family member 3 pseudogene 5)	0.0884	0.364	0.0265	inactive
NDUFB11P1 (NADH:ubiquinone oxidoreductase subunit B11 pseudogene 1)	0.82	0.992	0.686	inactive

The list itself, from the first entry:
gene	robust z-score, replicate 1	robust z-score, replicate 2	robust z-score, replicate 3	outcome
LOC400097 (retired record)	0.299	-0.446	-0.433	inactive
CTR9 (CTR9 component of Paf1/RNA polymerase II complex)	-0.592	-0.916	1.07	inactive
GUSBP8 (GUSB pseudogene 8)	-0.217	-0.00411	-0.308	inactive
RPP30 (ribonuclease P/MRP subunit p30)	-1.03	-0.514	-0.835	inactive
DIRAS2 (DIRAS family GTPase 2)	1.57	1.83	1.67	inactive
TBC1D3P5 (TBC1 domain family member 3 pseudogene 5)	0.0884	0.364	0.0265	inactive
NDUFB11P1 (NADH:ubiquinone oxidoreductase subunit B11 pseudogene 1)	0.82	0.992	0.686	inactive
PRDX2 (peroxiredoxin 2)	0.215	0	0.319	inactive
PAPLN (papilin, proteoglycan like sulfated glycoprotein)	2.81	0.99	1.45	inactive
PPARG (peroxisome proliferator activated receptor gamma)	1.02	-0.248	-0.0972	inactive
DMD (dystrophin)	0.179	3.93	0.352	inactive
TIAM1-AS1 (TIAM1 antisense RNA 1)	-0.948	-0.943	-0.962	inactive
LMTK3 (lemur tail kinase 3)	1.59	0.335	0.477	inactive
KIF2B (kinesin family member 2B)	0.547	0.58	0.248	inactive
TINCR (TINCR ubiquitin domain containing)	0.245	0.744	0.911	inactive
SNX32 (sorting nexin 32)	-0.549	-0.784	-0.114	inactive
IKBKG	-0.192	0.356	-0.413	inactive
CTCF (CCCTC-binding factor)	-0.523	-0.168	0.349	inactive
NKD2 (NKD inhibitor of Wnt signaling pathway 2)	-0.163	-0.536	-0.824	inactive
USP36 (ubiquitin specific peptidase 36)	-0.265	-0.364	-0.286	inactive
LOC200493 (retired record)	-0.454	-1.27	-1.01	inactive
HID1 (HID1 domain containing)	1.06	0.564	0.724	inactive
CCDC102A (coiled-coil domain containing 102A)	0.874	1.41	1.73	inactive
GRIN1 (glutamate ionotropic receptor NMDA type subunit 1)	0.461	0.995	1.01	inactive
ZNF215 (zinc finger protein 215)	0.817	1.48	0.176	inactive
SUSD5 (sushi domain containing 5)	-1.18	-0.672	-0.549	inactive
TMEM184C (transmembrane protein 184C)	-0.253	-1.2	-0.563	inactive
HRG (histidine rich glycoprotein)	-0.106	-0.294	-0.3	inactive
JRKL (JRK like)	0.238	-0.353	0.391	inactive
RRP1 (ribosomal RNA processing 1)	0.746	-1.36	-0.657	inactive
CPA2 (carboxypeptidase A2)	-0.184	-0.371	-0.74	inactive
ARHGEF12 (Rho guanine nucleotide exchange factor 12)	-0.343	-0.619	-0.573	inactive
PDE2A (phosphodiesterase 2A)	-0.312	-1.29	-1.32	inactive
PMCH (pro-melanin concentrating hormone)	-0.682	-0.437	-0.0226	inactive
LOC388915 (retired record)	-0.29	-0.287	-0.49	inactive
RAB11B (RAB11B, member RAS oncogene family)	-1.28	-1.97	-1.7	inactive
CLDND1 (claudin domain containing 1)	0.734	0.444	0.609	inactive
NGFR (nerve growth factor receptor)	0.6	1.17	0.852	inactive
POSTN (periostin)	0.147	-0.618	-0.297	inactive
NDUFS5 (NADH:ubiquinone oxidoreductase subunit S5)	0.926	-0.0446	-0.13	inactive
SHLD2 (shieldin complex subunit 2)	-0.45	-1.28	-0.166	inactive
LINC00898 (long independently transcribed non-coding RNA 898)	1.02	1.24	1.31	inactive
DHX9 (DExH-box helicase 9)	1.23	1.31	2.34	inactive
ALMS1P1 (ALMS1 pseudogene 1)	-0.253	-0.245	0.418	inactive
NCF1C (neutrophil cytosolic factor 1C (pseudogene))	-0.785	-1.31	-1.07	inactive
CFAP77 (cilia and flagella associated protein 77)	0.103	0.597	-0.217	inactive
RGPD2 (RANBP2 like and GRIP domain containing 2)	-0.545	-0.521	-0.616	inactive
SLC15A3	0.636	0.428	0.807	inactive
CNBD1 (cyclic nucleotide binding domain containing 1)	-0.52	0.338	-0.569	inactive
RHCE (Rh blood group CcEe antigens)	0.937	-0.0915	0.568	inactive
FAM133A (family with sequence similarity 133 member A)	2.05	1.7	2.06	active
LOC440113 (retired record)	4.4	4.1	4.23	active
TPRKB (TP53RK binding protein)	-0.855	-1.64	-1.25	inactive
ZNF350 (zinc finger protein 350)	0.957	1.17	0.372	inactive
NFIC (nuclear factor I C)	-0.97	-1.25	-1.13	inactive
FAM219B (family with sequence similarity 219 member B)	0.0943	-0.00183	-0.216	inactive
LINC01879 (long intergenic non-protein coding RNA 1879)	0.113	-0.393	-0.224	inactive
SMOC1 (SPARC related modular calcium binding 1)	0.079	0.112	-0.328	inactive
DNAJC11 (DnaJ heat shock protein family (Hsp40) member C11)	1.08	0.609	1.21	inactive
MORC1 (MORC family CW-type zinc finger 1)	-0.0148	0.166	0.613	inactive
LOC401061 (retired record)	-0.25	-0.02	-0.185	inactive
LOC400452 (retired record)	-0.934	0.598	0.0664	inactive
SPACA1 (sperm acrosome associated 1)	-0.344	-0.857	-0.781	inactive
PPP1R13L (protein phosphatase 1 regulatory subunit 13 like)	1.65	2.05	1.34	inactive
JAK3 (Janus kinase 3)	1.8	1.76	1.61	inactive
TPPP (tubulin polymerization promoting protein)	1.44	1.03	0.254	inactive
ANKRD13B (ankyrin repeat domain 13B)	-1.01	-1.08	-1.22	inactive
NMRK2 (nicotinamide riboside kinase 2)	0.178	0.0638	-0.522	inactive
